The list shows a part of the results, in another mix than the full data.

By UniProt entry, the sequences of proteins in these tests, tags left out. Where a name states a change or a piece, a line headed by the entry shows the natural chain unless it says otherwise.
UniProt O94979: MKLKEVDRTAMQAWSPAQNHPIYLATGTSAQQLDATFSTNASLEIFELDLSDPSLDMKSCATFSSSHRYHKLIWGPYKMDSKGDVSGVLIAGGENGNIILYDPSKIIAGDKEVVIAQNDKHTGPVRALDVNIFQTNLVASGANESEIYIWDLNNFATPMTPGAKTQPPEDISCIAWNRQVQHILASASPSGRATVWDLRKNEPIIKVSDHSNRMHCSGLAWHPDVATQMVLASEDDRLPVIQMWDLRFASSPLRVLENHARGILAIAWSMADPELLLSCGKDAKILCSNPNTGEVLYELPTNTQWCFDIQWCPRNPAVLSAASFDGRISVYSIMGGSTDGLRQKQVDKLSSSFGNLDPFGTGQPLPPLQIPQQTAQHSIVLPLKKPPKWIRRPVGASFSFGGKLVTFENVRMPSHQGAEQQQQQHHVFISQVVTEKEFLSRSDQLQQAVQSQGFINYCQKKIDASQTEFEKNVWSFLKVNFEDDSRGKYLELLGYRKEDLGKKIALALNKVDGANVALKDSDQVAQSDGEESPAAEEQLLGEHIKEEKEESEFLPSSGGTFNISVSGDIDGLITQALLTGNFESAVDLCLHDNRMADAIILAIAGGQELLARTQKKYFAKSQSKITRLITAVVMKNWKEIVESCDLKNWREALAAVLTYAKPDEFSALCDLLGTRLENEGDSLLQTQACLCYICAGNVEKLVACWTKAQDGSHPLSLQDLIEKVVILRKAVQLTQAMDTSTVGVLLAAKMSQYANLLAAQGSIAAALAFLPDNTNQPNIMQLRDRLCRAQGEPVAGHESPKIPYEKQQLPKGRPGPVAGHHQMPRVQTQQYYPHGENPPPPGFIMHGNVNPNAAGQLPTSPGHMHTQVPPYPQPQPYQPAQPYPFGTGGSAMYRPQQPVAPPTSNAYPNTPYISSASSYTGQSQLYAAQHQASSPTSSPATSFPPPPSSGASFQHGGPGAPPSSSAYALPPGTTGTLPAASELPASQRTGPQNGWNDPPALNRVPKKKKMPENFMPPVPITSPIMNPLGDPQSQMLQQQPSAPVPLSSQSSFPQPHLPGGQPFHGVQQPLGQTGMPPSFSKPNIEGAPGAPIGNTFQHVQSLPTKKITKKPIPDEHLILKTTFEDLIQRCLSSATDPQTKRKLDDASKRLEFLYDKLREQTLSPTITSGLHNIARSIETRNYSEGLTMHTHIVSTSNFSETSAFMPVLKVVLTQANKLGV
UniProt O96028: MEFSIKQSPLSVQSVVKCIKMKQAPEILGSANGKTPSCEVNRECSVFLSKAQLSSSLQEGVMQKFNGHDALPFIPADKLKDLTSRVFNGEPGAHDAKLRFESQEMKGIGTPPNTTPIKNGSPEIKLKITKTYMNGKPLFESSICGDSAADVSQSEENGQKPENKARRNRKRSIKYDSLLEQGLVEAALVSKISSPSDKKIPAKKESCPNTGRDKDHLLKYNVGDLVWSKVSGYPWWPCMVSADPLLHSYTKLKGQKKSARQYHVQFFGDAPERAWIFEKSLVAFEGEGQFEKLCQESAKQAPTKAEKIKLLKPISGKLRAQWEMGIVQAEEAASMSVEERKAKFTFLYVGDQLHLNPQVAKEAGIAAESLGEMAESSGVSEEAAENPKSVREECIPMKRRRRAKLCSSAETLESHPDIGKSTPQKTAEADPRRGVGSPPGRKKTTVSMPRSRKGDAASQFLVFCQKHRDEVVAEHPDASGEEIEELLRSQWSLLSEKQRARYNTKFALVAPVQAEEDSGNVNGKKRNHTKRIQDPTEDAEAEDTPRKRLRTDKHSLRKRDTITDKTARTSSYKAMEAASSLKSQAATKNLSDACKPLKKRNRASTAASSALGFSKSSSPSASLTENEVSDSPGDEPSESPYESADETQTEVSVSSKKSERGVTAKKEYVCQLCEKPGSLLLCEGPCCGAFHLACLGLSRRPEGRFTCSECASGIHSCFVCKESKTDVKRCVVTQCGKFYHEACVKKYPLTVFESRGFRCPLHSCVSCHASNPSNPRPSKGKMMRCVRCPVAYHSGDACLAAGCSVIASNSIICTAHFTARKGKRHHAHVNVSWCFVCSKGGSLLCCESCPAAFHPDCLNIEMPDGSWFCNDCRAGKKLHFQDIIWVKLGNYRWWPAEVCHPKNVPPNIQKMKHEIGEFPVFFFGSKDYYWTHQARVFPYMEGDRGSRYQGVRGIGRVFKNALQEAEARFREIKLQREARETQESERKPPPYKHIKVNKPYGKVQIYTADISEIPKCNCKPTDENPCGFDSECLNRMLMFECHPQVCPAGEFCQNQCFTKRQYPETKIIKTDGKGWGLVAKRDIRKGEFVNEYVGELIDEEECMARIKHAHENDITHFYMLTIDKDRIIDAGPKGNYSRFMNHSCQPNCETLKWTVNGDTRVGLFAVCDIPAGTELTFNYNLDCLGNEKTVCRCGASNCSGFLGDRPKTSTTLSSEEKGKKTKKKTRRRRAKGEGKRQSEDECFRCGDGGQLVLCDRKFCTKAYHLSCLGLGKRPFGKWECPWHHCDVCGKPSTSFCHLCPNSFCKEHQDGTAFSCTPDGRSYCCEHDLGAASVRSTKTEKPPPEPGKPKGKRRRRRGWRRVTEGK
UniProt P04179: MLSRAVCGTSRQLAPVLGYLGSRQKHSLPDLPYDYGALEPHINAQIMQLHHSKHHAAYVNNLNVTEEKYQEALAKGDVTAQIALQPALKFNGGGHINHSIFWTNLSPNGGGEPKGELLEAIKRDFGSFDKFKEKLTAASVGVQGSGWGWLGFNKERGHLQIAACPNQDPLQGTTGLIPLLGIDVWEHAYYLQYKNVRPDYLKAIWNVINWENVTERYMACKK
UniProt O96008: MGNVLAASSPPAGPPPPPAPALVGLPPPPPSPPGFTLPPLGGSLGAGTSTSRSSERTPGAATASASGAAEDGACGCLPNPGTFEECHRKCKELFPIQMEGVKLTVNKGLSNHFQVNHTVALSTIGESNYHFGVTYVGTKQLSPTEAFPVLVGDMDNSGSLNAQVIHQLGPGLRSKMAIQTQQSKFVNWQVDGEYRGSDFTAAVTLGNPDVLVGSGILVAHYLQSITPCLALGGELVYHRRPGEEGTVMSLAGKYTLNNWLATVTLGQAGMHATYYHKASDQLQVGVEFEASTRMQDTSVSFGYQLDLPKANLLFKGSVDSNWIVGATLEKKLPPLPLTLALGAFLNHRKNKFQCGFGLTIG
UniProt P04632: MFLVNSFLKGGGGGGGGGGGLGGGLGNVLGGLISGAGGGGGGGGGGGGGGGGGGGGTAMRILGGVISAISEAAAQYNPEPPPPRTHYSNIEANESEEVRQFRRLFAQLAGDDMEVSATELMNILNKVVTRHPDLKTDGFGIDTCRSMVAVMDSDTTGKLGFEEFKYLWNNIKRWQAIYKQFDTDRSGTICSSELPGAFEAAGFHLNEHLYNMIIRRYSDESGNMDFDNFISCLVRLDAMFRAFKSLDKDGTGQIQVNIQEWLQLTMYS
UniProt O95819: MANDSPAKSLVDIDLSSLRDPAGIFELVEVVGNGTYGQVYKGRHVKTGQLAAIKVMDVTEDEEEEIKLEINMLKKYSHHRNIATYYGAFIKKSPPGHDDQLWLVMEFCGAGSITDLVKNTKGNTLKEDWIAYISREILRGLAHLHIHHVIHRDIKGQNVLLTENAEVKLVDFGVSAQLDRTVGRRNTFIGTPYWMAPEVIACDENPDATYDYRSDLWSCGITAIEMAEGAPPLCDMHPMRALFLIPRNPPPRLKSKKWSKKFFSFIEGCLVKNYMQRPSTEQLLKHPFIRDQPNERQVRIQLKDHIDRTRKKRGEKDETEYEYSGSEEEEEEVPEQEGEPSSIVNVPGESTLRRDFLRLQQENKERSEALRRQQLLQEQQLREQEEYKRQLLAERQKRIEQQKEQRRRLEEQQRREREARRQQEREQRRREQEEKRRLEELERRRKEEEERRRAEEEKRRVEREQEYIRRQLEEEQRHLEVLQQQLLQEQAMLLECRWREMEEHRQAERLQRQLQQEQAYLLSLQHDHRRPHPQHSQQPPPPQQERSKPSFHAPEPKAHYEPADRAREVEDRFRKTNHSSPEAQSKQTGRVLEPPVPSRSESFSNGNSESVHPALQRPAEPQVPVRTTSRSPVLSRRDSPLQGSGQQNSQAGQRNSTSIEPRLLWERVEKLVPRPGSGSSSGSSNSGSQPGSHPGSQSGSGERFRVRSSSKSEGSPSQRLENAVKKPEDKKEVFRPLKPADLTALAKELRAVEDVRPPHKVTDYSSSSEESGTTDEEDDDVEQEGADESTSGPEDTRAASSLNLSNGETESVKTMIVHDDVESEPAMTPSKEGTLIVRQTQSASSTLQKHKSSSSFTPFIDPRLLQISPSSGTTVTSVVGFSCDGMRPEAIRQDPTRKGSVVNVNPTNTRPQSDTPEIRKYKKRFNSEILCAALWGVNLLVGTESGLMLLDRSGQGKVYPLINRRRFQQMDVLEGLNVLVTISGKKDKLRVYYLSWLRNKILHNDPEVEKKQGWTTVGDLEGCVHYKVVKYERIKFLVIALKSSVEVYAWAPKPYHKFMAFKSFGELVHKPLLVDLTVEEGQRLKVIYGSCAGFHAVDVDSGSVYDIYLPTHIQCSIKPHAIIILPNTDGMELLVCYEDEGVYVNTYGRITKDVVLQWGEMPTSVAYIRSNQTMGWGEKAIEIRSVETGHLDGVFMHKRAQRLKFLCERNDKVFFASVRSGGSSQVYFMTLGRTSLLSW
UniProt P05455: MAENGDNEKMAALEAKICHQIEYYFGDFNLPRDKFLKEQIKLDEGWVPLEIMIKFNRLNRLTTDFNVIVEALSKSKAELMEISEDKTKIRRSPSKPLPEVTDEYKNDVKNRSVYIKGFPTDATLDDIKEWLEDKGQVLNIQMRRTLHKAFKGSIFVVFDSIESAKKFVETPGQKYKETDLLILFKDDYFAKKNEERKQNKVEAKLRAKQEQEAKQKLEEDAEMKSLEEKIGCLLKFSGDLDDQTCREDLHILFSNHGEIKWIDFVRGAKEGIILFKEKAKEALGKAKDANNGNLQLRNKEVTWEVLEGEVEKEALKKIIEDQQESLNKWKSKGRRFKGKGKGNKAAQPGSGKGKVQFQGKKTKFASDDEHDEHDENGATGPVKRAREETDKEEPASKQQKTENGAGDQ
UniProt O95104: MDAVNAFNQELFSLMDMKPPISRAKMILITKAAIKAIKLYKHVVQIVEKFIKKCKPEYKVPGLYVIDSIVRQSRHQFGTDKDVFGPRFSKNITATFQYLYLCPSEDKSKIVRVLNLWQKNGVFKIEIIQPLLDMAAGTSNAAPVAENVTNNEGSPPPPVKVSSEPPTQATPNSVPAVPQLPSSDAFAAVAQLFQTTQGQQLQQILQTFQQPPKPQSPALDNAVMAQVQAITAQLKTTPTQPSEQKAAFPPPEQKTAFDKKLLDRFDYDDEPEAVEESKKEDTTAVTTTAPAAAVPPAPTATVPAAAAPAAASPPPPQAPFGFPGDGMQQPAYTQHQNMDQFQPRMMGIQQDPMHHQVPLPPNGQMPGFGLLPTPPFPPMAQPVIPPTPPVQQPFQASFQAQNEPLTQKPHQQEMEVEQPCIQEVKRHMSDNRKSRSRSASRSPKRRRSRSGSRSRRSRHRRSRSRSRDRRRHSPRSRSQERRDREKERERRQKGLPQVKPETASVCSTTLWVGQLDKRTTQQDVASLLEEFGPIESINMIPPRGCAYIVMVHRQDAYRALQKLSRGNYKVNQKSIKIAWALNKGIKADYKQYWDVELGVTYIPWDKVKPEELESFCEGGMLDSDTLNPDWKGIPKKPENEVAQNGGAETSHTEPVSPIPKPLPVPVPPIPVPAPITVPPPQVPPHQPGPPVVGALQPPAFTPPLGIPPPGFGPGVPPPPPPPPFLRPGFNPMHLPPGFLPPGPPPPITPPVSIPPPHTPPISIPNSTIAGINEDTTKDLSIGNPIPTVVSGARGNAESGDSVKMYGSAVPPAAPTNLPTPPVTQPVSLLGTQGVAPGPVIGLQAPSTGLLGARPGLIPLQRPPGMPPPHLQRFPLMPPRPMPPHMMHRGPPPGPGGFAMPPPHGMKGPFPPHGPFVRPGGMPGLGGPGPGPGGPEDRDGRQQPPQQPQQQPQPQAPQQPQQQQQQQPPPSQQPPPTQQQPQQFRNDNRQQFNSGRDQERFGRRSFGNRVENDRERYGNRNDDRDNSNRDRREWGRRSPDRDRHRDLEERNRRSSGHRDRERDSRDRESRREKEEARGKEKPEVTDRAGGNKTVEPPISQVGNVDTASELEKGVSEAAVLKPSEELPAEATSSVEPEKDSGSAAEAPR
UniProt P04075: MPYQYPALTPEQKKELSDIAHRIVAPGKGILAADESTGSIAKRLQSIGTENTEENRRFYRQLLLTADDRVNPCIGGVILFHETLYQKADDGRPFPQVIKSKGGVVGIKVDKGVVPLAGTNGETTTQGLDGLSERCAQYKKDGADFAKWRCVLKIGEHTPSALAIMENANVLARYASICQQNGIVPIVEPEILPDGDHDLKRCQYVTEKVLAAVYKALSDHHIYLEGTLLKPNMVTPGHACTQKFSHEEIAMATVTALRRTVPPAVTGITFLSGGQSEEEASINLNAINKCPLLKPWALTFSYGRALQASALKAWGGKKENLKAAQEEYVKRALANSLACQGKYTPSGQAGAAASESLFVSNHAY

Compound in this experiment: COC(=O)C#Cc1ccccc1 [methyl 3-phenylpropiolate]
Description: log2 ratio of iodoacetamide-alkyne labeling of the cysteine site, DMSO over compound (competition); higher = stronger covalent engagement of the cysteine by the compound, active = 1 or more. The note with it: 500 µM; treatment time 1 h; system: HEK293T cell lysate. In short, it runs like this:
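For each cysteine, the log2 competition ratio is mean control-channel reporter intensity over mean compound-channel reporter intensity. HEK293T lysate (2 mg/mL) was exposed to vehicle or electrophile (500 µM, 1 h, ambient temperature), labelled with iodoacetamide alkyne (1 h), clicked to sCIP-TMT reagents, digested overnight with trypsin at 37 °C, streptavidin-enriched and analysed by Orbitrap Eclipse LC-MS/MS with FAIMS and FragPipe. Cysteines quantified in only one of three replicates, each with duplicate channels, were excluded.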
On to SEC31A C173 (UniProt O94979), for which the “log2 ratio of iodoacetamide-alkyne labeling” value (shortened to “log2 ratio”) is inactive: 0.494.
Turning to ACSL3 C652 (UniProt O95573), the “log2 ratio” value was inactive: -0.112.
As for UniProt O96028_C1324, the “log2 ratio” value is inactive: 0.369.
As for BAG3 C151 (UniProt O95817), the “log2 ratio” value was inactive: 0.655.
On to ASS1 C132 (UniProt P00966), for which the “log2 ratio” value was inactive: 0.124.
As to UniProt P00519_C1100, the “log2 ratio” value is inactive: 0.9.
As to SOD2 C164 (UniProt P04179), the “log2 ratio” value is inactive: -0.0962.
As to BPNT1 C42 (UniProt O95861), the “log2 ratio” value is inactive: 0.266.
For NPM1 C104 (UniProt P06748), the “log2 ratio” value was inactive: 0.204.
Turning to ETHE1 C34 (UniProt O95571), the “log2 ratio” value was inactive: -0.0541.
Regarding SVIL C1989 (UniProt O95425), the “log2 ratio” value is inactive: 0.825.
ZFPL1 C230 (UniProt O95159): the “log2 ratio” value was inactive: 0.347.
Regarding SOD1 C147 (UniProt P00441), the “log2 ratio” value is inactive: -0.0776.
As to TOMM40 C74 (UniProt O96008), the “log2 ratio” value is inactive: 0.454.
Turning to MBD3 C215 (UniProt O95983), the “log2 ratio” value was inactive: 0.659.
With PGK1 C50 (UniProt P00558), the “log2 ratio” value is inactive: 0.0293.
As to UniProt O94953_C971, the “log2 ratio” value was inactive: 0.337.
For the target ACSL3 C561 (UniProt O95573), the “log2 ratio” value was inactive: 0.0916.
Under SEC24B C1267 (UniProt O95487) stands inactive: -0.267; under HEXIM1 C18 (UniProt O94992), inactive: 0.398; under ENO1 C337 (UniProt P06733), inactive: 0.17.
Consider LDHA C185 (UniProt P00338), for which the “log2 ratio” value is inactive: 0.156.
With CAPNS1 C190 (UniProt P04632), the “log2 ratio” value is inactive: 0.0116.
Take PRPF6 C901 (UniProt O94906): the “log2 ratio” value was inactive: 0.0662.
For SOGA1 C267 (UniProt O94964), the “log2 ratio” value is inactive: -0.405.
Regarding MAP4K4 C883 (UniProt O95819), the “log2 ratio” value was inactive: 0.438.
Take UniProt O95232_C43: the “log2 ratio” value was inactive: 0.186.
Under GPX1 C202 (UniProt P07203) stands inactive: 0.00172.
As for POLR1A C613 (UniProt O95602), the “log2 ratio” value was inactive: 0.472.
SSB C245 (UniProt P05455): the “log2 ratio” value is inactive: 0.0576.
Under CSTB C3 (UniProt P04080) stands inactive: 0.661; under UniProt O95104_C506, inactive: 0.288.
As to SOD1 C58 (UniProt P00441), the “log2 ratio” value is inactive: 0.393.
With GAPDH C247 (UniProt P04406), the “log2 ratio” value is inactive: -0.518.
Under ALDOA C73 (UniProt P04075) stands inactive: 0.116; under MAP4K4 C202 (UniProt O95819), inactive: 0.624.
Under FGFR1OP C244 (UniProt O95684) stands inactive: 0.0665.

Values taken from the supplement of paper PMC11006884.
